No constants are given. Whether binding was seen depends on the method and setting. For part of these data: Binding seen in cells or lysates may run through a third protein. Some binding calls cover weakened binding; strength is not graded here. For part of these data: Where a sequence is shown, tags or fusion partners need not be part of it.

In assay [1] the target is T1, SRAS1.1-cYFP (Arabidopsis thaliana) (UniProt Q9FKX5).
T1 sequence: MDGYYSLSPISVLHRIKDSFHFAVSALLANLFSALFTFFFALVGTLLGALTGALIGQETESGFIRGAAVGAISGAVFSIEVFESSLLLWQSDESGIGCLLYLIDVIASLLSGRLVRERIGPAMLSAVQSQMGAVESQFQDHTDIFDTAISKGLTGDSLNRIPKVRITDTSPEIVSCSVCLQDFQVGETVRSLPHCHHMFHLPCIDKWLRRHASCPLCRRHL
In words: split reporter; BiFC in N. benthamiana leaves; cYFP and nYFP fusions; confocal microscopy after 48 h.

The target of assay [2] is T2, SRAS1.1-GFP (Arabidopsis thaliana) (UniProt Q9FKX5).
T2 sequence: T1 sequence
Put plainly: co-IP; SRAS1.1-GFP co-infiltrated with DSK2A-HA or DSK2B-HA in N. benthamiana leaves; anti-GFP magnetic beads, 4 °C, 5-6 h; blots with anti-GFP and anti-HA.

The target of assay [3] is T3, SRAS1.1-BD (Arabidopsis thaliana) (UniProt Q9FKX5).
T3 sequence: T1 sequence
Put plainly: two-hybrid; SRAS1.1 in pGBKT7 (BD), DSK2A or DSK2B in pGADT7 (AD), yeast strain Gold; growth on SD/-Ade-His-Leu-Trp.

The target of assay [4] is T4, SRAS1.1-cLUC (Arabidopsis thaliana) (UniProt Q9FKX5).
T4 sequence: T1 sequence
Put plainly: split reporter; luciferase complementation imaging (LCI) in N. benthamiana leaves; cLUC and nLUC fusions; 0.2 mM D-luciferin, CCD camera.

The target in assay [5] is T5, DSK2B of the competitive pull-down (Arabidopsis thaliana) (UniProt Q9SII8).
T5 sequence: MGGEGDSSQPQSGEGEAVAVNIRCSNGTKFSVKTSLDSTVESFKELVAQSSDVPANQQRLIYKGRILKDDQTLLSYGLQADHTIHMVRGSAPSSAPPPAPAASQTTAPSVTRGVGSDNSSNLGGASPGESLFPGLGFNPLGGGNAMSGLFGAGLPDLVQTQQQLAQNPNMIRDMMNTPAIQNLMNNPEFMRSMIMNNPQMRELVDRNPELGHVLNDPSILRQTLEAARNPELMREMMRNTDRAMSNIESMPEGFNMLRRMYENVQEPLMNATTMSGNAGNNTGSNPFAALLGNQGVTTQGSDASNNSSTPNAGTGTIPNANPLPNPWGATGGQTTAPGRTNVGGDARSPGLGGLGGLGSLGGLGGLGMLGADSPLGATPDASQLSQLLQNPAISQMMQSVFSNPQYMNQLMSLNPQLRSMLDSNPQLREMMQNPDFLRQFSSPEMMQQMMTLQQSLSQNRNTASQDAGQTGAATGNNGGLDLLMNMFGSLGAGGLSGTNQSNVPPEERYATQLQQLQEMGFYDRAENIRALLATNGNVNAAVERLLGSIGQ
Put plainly: pull-down; competitive pull-down with rising SRAS1.2 levels (Appendix Fig. S8D); methods not given.

B1: nYFP-DSK2B (protein, UniProt Q9SII8 1-551)
chain: T5 sequence
Turning to B1, the binding entry in assay [1] is “binds”.

B2: DSK2B-HA (protein, UniProt Q9SII8 1-551)
chain: T5 sequence
On to B2, for which the binding entry in assay [2] was “binds”.

B3: DSK2B-AD (protein, UniProt Q9SII8 1-551)
chain: T5 sequence
In the case of B3, the binding result in assay [3] is “binds”.

B4: nLUC-DSK2B (protein, UniProt Q9SII8 1-551)
chain: T5 sequence
With B4, in assay [4], the binding entry is “binds”.

B5: DSK2A-AD (protein, UniProt Q9SII9 1-538)
chain: MGGEADSRQPLTAEGVAVAVNVRCSNGTKFSVTTSLDSTVESFKELIAQNSDVPANQQRLIYKGRILKDDQTLLSYGLQADHTVHMVRGFVPSSPSAPAANAGNQTTAPQAVGSNDSSNLGGGESLFPGLGFNPLGGGNAMAGLFGSGLPDLEQAQQQLAQNPNMIREMMNTPAIQNLMNNPEFMRSMIMNNPQMRELVDRNPELGHVLNDPSILRQTLEAARNPELMREMMRNTDRAMSNIESMPEGFNMLRRMYENVQEPLMNATTMSENAGNNTSSNPFAALLGNQGVTTQGSDTSNNISAPNAETGTPNANPLPNPWGATAGQTTAPGRTNAGLGGLGGLGGLGGLGMLGADSPLGATPDASQLSQILQNPAMSQMMQSVLSNPQYMNQLMSLNPQLRSMLDMNPQLREMMQNPDFLRQFSSPEMMQQMMSLQQSLFSQNRNTAGQDPTQTGAATGTANNGGLDLLMNMFGSLGAGGLSGTNQPNVPPEERFATQLQQLQEMGFYDRAENIRALLATNGNVNAAVERLLGSIGQ
In the case of B5, the binding result in assay [3] is reported as “binds”.

B6: nYFP-DSK2A (protein, UniProt Q9SII9 1-538)
chain: B5 chain
Regarding B6, the binding result in assay [1] is “binds”.

B7: nLUC-DSK2A (protein, UniProt Q9SII9 1-538)
chain: B5 chain
In the case of B7, the binding entry in assay [4] was “binds”.

B8: DSK2A-HA (protein, UniProt Q9SII9 1-538)
chain: B5 chain
Take B8: in assay [2], the binding result is reported as “binds”.

B9: SRAS1.1 of the competitive pull-down (protein, UniProt Q9FKX5 1-221)
chain: T1 sequence
On to B9, for which the binding result in assay [5] is reported as “binds”.

Source of the values: paper PMC12508185.
